# Measurements taken from PMC8384837.
# Residue numbers refer to the chain shown, from its start. Some of the results follow. For some of these results: At the low end of the ranking the order means little.
# Experiments:
# Conditions in all cases: yeast three-hybrid, YBZ-1, SC-Leu-His + 0.5 mM 3-AT, 4 days
# [1] = biological target: T1, PUM1 PUF domain R7-LTC S1079L + N1080T + E1083C (UniProt Q14671)
# T1 sequence: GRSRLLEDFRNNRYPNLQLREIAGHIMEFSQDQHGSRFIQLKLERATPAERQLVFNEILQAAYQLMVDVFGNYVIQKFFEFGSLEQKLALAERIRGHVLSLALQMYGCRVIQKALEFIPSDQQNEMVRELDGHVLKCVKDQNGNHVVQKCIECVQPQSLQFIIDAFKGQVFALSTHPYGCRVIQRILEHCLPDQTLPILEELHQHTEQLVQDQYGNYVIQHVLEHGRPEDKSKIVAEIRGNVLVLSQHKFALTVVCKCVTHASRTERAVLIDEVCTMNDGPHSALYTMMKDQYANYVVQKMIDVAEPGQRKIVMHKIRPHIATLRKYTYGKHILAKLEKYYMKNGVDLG
# [2] = biological target: T2, PUM1 PUF domain R7-LTL S1079L + N1080T + E1083L (UniProt Q14671)
# T2 sequence: T1 sequence with C256L
# [3] = biological target: T3, PUM1 PUF domain R7-LTV S1079L + N1080T + E1083V (UniProt Q14671)
# T3 sequence: T1 sequence with C256V
# [4] = biological target: T4, PUM1 PUF domain R7-LYW S1079L + N1080Y + E1083W (UniProt Q14671)
# T4 sequence: T1 sequence with T253Y, C256W
# [5] = biological target: T5, PUM1 PUF domain R7-MSG S1079M + N1080S + E1083G (UniProt Q14671)
# T5 sequence: T1 sequence with L252M, T253S, C256G
# [6] = biological target: T6, PUM1 PUF domain R7-MSR S1079M + N1080S + E1083R (Homo sapiens) (UniProt Q14671)
# T6 sequence: T1 sequence with L252M, T253S, C256R
# [7] = biological target: T7, PUM1 PUF domain R7-QGG S1079Q + N1080G + E1083G (UniProt Q14671)
# T7 sequence: T1 sequence with L252Q, T253G, C256G
# [8] = biological target: T8, PUM1 PUF domain R7-QGR S1079Q + N1080G + E1083R (Homo sapiens) (UniProt Q14671)
# T8 sequence: T1 sequence with L252Q, T253G, C256R
# [9] = biological target: T9, PUM1 PUF domain R7-QPG S1079Q + N1080P + E1083G (Homo sapiens) (UniProt Q14671)
# T9 sequence: T1 sequence with L252Q, T253P, C256G
# [10] = biological target: T10, PUM1 PUF domain R7-QSG S1079Q + N1080S + E1083G (Homo sapiens) (UniProt Q14671)
# T10 sequence: T1 sequence with L252Q, T253S, C256G
# [11] = biological target: T11, PUM1 PUF domain R7-QSN S1079Q + N1080S + E1083N (Homo sapiens) (UniProt Q14671)
# T11 sequence: T1 sequence with L252Q, T253S, C256N
# [12] = biological target: T12, PUM1 PUF domain R7-QSR S1079Q + N1080S + E1083R (Homo sapiens) (UniProt Q14671)
# T12 sequence: T1 sequence with L252Q, T253S, C256R
# [13] = biological target: T13, PUM1 PUF domain R7-QTR S1079Q + N1080T + E1083R (Homo sapiens) (UniProt Q14671)
# T13 sequence: T1 sequence with L252Q, C256R
# [14] = biological target: T14, PUM1 PUF domain R7-RAS S1079R + N1080A + E1083S (Homo sapiens) (UniProt Q14671)
# T14 sequence: T1 sequence with L252R, T253A, C256S
# [15] = biological target: T15, PUM1 PUF domain R7-RCG S1079R + N1080C + E1083G (Homo sapiens) (UniProt Q14671)
# T15 sequence: T1 sequence with L252R, T253C, C256G
# [16] = biological target: T16, PUM1 PUF domain R7-RER S1079R + N1080E + E1083R (Homo sapiens) (UniProt Q14671)
# T16 sequence: T1 sequence with L252R, T253E, C256R
# [17] = biological target: T17, PUM1 PUF domain R7-RGF S1079R + N1080G + E1083F (Homo sapiens) (UniProt Q14671)
# T17 sequence: T1 sequence with L252R, T253G, C256F
# [18] = biological target: T18, PUM1 PUF domain R7-RGW S1079R + N1080G + E1083W (Homo sapiens) (UniProt Q14671)
# T18 sequence: T1 sequence with L252R, T253G, C256W
# [19] = biological target: T19, PUM1 PUF domain R7-RGY S1079R + N1080G + E1083Y (Homo sapiens) (UniProt Q14671)
# T19 sequence: T1 sequence with L252R, T253G, C256Y
# [20] = biological target: T20, PUM1 PUF domain R7-RIL S1079R + N1080I + E1083L (Homo sapiens) (UniProt Q14671)
# T20 sequence: T1 sequence with L252R, T253I, C256L
# [21] = biological target: T21, PUM1 PUF domain R7-RIQ S1079R + N1080I + E1083Q (Homo sapiens) (UniProt Q14671)
# T21 sequence: T1 sequence with L252R, T253I, C256Q
# [22] = biological target: T22, PUM1 PUF domain R7-RIR S1079R + N1080I + E1083R (Homo sapiens) (UniProt Q14671)
# T22 sequence: T1 sequence with L252R, T253I, C256R
# [23] = biological target: T23, PUM1 PUF domain R7-RKR S1079R + N1080K + E1083R (Homo sapiens) (UniProt Q14671)
# T23 sequence: T1 sequence with L252R, T253K, C256R
# [24] = biological target: T24, PUM1 PUF domain R7-RML S1079R + N1080M + E1083L (Homo sapiens) (UniProt Q14671)
# T24 sequence: T1 sequence with L252R, T253M, C256L
# [25] = biological target: T25, PUM1 PUF domain R7-RPE S1079R + N1080P (Homo sapiens) (UniProt Q14671)
# T25 sequence: T1 sequence with L252R, T253P, C256E
sequence,measurement,setting,value
GGCUAGAACUAGUGGAUCCCCCGGCGCCCGGCGGCUCGAGCCCGGGUAAGUCUAAAUAGUCUGCAUGCCGCCGGGCGCCAUGCCUGCAGGUCGACUCUAGAAAACAUG,binding signal (log2 enrichment (interaction score)),[1],< -10.3
same,binding signal (log2 enrichment (interaction score)),[2],< -7.91
same,binding signal (log2 enrichment (interaction score)),[3],< -8.74
same,binding signal (log2 enrichment (interaction score)),[4],< -7.15
same,binding signal (log2 enrichment (interaction score)),[5],< -8.43
same,binding signal (log2 enrichment (interaction score)),[6],-2.45
same,binding signal (log2 enrichment (interaction score)),[7],< -8.21
same,binding signal (log2 enrichment (interaction score)),[8],-1.57
same,binding signal (log2 enrichment (interaction score)),[9],-0.98
same,binding signal (log2 enrichment (interaction score)),[10],-4
same,binding signal (log2 enrichment (interaction score)),[11],-2.05
same,binding signal (log2 enrichment (interaction score)),[12],0.29
same,binding signal (log2 enrichment (interaction score)),[13],-1.67
same,binding signal (log2 enrichment (interaction score)),[14],-1.58
same,binding signal (log2 enrichment (interaction score)),[15],0.09
same,binding signal (log2 enrichment (interaction score)),[16],-0.02
same,binding signal (log2 enrichment (interaction score)),[17],-1.62
same,binding signal (log2 enrichment (interaction score)),[18],-0.46
same,binding signal (log2 enrichment (interaction score)),[19],-0.28
same,binding signal (log2 enrichment (interaction score)),[20],-1.8
same,binding signal (log2 enrichment (interaction score)),[21],-0.03
same,binding signal (log2 enrichment (interaction score)),[22],-0.96
same,binding signal (log2 enrichment (interaction score)),[23],0.66
same,binding signal (log2 enrichment (interaction score)),[24],-2.8
same,binding signal (log2 enrichment (interaction score)),[25],-0.65

# Part of the list above, with tabs:
sequence	measurement	setting	value
GGCUAGAACUAGUGGAUCCCCCGGCGCCCGGCGGCUCGAGCCCGGGUAAGUCUAAAUAGUCUGCAUGCCGCCGGGCGCCAUGCCUGCAGGUCGACUCUAGAAAACAUG	binding signal (log2 enrichment (interaction score))	[10]	-4
same	binding signal (log2 enrichment (interaction score))	[11]	-2.05
